We go through 2 molecules from patent US20210395340A1 (KINDRED BIOSCIENCES, published 2021).

These are yes or no findings as the source states them, for the method shown. Some results given as binding are weak or reduced against the parent protein; the word gives no strength. Where a sequence is shown, tags or fusion partners need not be part of it.

Experiment [1] concerns the target T1, canine IL4 with C-terminal poly-His tag (produced in 293 cells) (canine) (UniProt O77762).
T1 sequence: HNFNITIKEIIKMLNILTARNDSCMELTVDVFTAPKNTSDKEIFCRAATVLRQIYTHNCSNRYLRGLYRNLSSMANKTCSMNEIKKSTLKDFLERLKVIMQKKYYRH
The experiment can be described thus: BLI (Octet).

Experiment [2] deals with T1, canine IL4 with C-terminal poly-His tag (produced in 293 cells) (canine). The experiment can be described thus: BLI sequential binding, biotinylated fusion on streptavidin tips, ligands at 30 ug/mL in PBS.

B1: canine IL4RECD-IL13RECD-IgGB Fc (Fc fusion)
chain: SGSVKVLHEPSCFSDYISTSVCQWKMDHPTNCSAELRLSYQLDFMGSENHTCVPENREDSVCVCSMPIDDAVEADVYQLDLWAGQQLLWSGSFQPSKHVKPRTPGNLTVHPNISHTWLLMWTNPYPTENHLHSELTYMVNVSNDNDPEDFKVYNVTYMGPTLRLAASTLKSGASYSARVRAWAQTYNSTWSDWSPSTTWLNYYEPGGGSGTETQPPVTNLSVSVENLCTVIWTWDPPEGASPNCTLRYFSHFDNKQDKKIAPETHRSKEVPLNERICLQVGSQCSTNESDNPSILVEKCTPPPEGDPESAVTELQCVWHNLSYMKCTWLPGRNTSPDTNYTLYYWHSSLGKILQCEDIYREGQHIGCSFALTNLKDSSFEQHSVQIVVKDNAGKIRPSFNIVPLTSHVKPDPPHIKRLFFQNGNLYVQWKNPQNFYSRCLSYQVEVNNSQTETNDIFYVEEAKCQNSEFEGNLEGTICFMVPGVLPDTLNTVRIRVRTNKLCYEDDKLWSNWSQAMSIGENTDPTPKRENGRVPRPPDCPKCPAPEMLGGPSVFIFPPKPKDTLLIARTPEVTCVVVDLDPEDPEVQISWFVDGKQMQTAKTQPREEQFNGTYRVVSVLPIGHQDWLKGKQFTCKVNNKALPSPIERTISKARGQAHQPSVYVLPPSREELSKNTVSLTCLIKDFFPPDIDVEWQSNGQQEPESKYRTTPPQLDEDGSYFLYSKLSVDKSRWQRGDTFICAVMHEALHNHYTQESLSHSPGK
notes: The IL4R ECD precedes the IL13R ECD, followed by canine IgG-B Fc; also called canine IL4RECD-IL13RECD-Fc; SINK
Consider B1, for which the binding result in experiment [1] and in experiment [2] was “binds” in each case.

B2: canine IL13RECD-IL4RECD-IgGB Fc (Fc fusion)
chain: TETQPPVTNLSVSVENLCTVIWTWDPPEGASPNCTLRYFSHFDNKQDKKIAPETHRSKEVPLNERICLQVGSQCSTNESDNPSILVEKCTPPPEGDPESAVTELQCVWHNLSYMKCTWLPGRNTSPDTNYTLYYWHSSLGKILQCEDIYREGQHIGCSFALTNLKDSSFEQHSVQIVVKDNAGKIRPSFNIVPLTSHVKPDPPHIKRLFFQNGNLYVQWKNPQNFYSRCLSYQVEVNNSQTETNDIFYVEEAKCQNSEFEGNLEGTICFMVPGVLPDTLNTVRIRVRTNKLCYEDDKLWSNWSQAMSIGENTDPTGGGSGSGSVKVLHEPSCFSDYISTSVCQWKMDHPTNCSAELRLSYQLDFMGSENHTCVPENREDSVCVCSMPIDDAVEADVYQLDLWAGQQLLWSGSFQPSKHVKPRTPGNLTVHPNISHTWLLMWTNPYPTENHLHSELTYMVNVSNDNDPEDFKVYNVTYMGPTLRLAASTLKSGASYSARVRAWAQTYNSTWSDWSPSTTWLNYYEPKRENGRVPRPPDCPKCPAPEMLGGPSVFIFPPKPKDTLLIARTPEVTCVVVDLDPEDPEVQISWFVDGKQMQTAKTQPREEQFNGTYRVVSVLPIGHQDWLKGKQFTCKVNNKALPSPIERTISKARGQAHQPSVYVLPPSREELSKNTVSLTCLIKDFFPPDIDVEWQSNGQQEPESKYRTTPPQLDEDGSYFLYSKLSVDKSRWQRGDTFICAVMHEALHNHYTQESLSHSPGK
notes: also called canine IL13RECD-IL4RECD-Fc; IL13R ECD/IL4R ECD contiguous polypeptide
Take B2: the binding entry in experiment [1] and in experiment [2] was “binds” throughout.
